Data source: PubChem BioAssay AID504793 (Drosophila RNAi Screening Center, 2011)
Aim: 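Knock-downs allowing continued mitosis even though DNA is damaged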 (primary screen). Cells: Drosophila S2R+ cells. Knock-down reagent: long dsRNA against Drosophila genes, about 0.25 µg dsRNA per well. Duration: 4 days of dsRNA, then 4 hours of drug before read-out. Challenge: doxorubicin 0.5 µM for 4 hours to cause double-strand breaks, in cells also given a low, harmless dose of dsRNA against nbs to sensitise the assay. Detection: 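Mitotic index as the number of phospho-histone H3-positive cells in each well following doxorubicin, given as raw counts without normalisation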. Direction: mitotic cells: higher = more cells in mitosis, weaker G2 arrest. Hit rule: 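a call needs confirmation in secondary tests, with other dsRNAs and a check of mitotic timing without damage, not just a high primary count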. Calls: active = confirmed in follow-up tests; inactive = not confirmed.
The deposit covers about 23,000 reagents; shown is a random part of those that have a named target and a result. Of all reagents, 62 (0.27%) were called active. 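Calls come from follow-up tests whose scores are not deposited, so confirmed genes may have low counts here; counts are not normalised per plate.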 The raw values are shown without normalisation. A plus sign joins genes that one reagent is predicted to hit.

target gene | PubChem SID | mitotic cells, replicate 1 | mitotic cells, replicate 2 | Outcome
Alp4 (GeneID 43671) | SID104193908 | 11 | – | inactive
Caper (GeneID 33989) | SID104181929 | 7 | – | inactive
deltaTry + CG30031 + CG30025 + 1 more | SID104206075 | 4 | – | inactive
fid (GeneID 43148) | SID104194677 | 4 | – | inactive
fid (GeneID 43148) | SID104196256 | 13 | – | inactive
fid (GeneID 43148) | SID104202780 | 19 | – | inactive
fid (GeneID 43148) | SID104203776 | 3 | – | inactive
antr (GeneID 246647) | SID104201870 | 6 | – | inactive
Irk1 (GeneID 42742) | SID104195898 | 7 | – | inactive
CG43339 + CG43338 | SID104182258 | 6 | – | inactive
CG1894 (GeneID 43378) | SID104195188 | 9 | – | inactive
Ance-2 (GeneID 34806) | SID104182331 | 6 | – | inactive
Hsl (GeneID 37289) | SID104185820 | 12 | – | inactive
APC4 (GeneID 31835) | SID104198152 | 51 | – | inactive
APC4 (GeneID 31835) | SID104208538 | 91 | – | inactive
Acp26Aa (GeneID 33817) | SID104181647 | 7 | – | inactive
CG14657 (GeneID 40602) | SID104192011 | 5 | – | inactive
CG14657 (GeneID 40602) | SID104192035 | 8 | – | inactive
DptA (GeneID 37183) | SID104187196 | 3 | – | inactive
CG6664 (GeneID 39903) | SID104190482 | 5 | – | inactive
CG6664 (GeneID 39903) | SID104203976 | 7 | – | inactive
Tgs1 + moi | SID104203254 | 4 | – | inactive
Dgp-1 (GeneID 37080) | SID104187192 | 8 | – | inactive
CG33232 (retired record) (GeneID 2769004) | SID104187979 | 8 | – | inactive
CG33232 (retired record) (GeneID 2769004) | SID104188287 | 5 | – | inactive
dpr4 (GeneID 3346160) | SID104194323 | 5 | – | inactive
dpr4 (GeneID 3346160) | SID104194721 | 6 | – | inactive
pain (GeneID 37985) | SID104184065 | 7 | – | inactive
pain (GeneID 37985) | SID104206895 | 8 | – | inactive
CG16826 (GeneID 34741) | SID104182319 | 4 | – | inactive
CG8003 (GeneID 39210) | SID104190738 | 6 | – | inactive
ball (GeneID 43228) | SID104193937 | 22 | – | inactive
ball (GeneID 43228) | SID104205151 | 7 | – | inactive
CG8757 (GeneID 39528) | SID104190831 | 8 | – | inactive
CG8757 (GeneID 39528) | SID104203280 | 6 | – | inactive
CG16739 (GeneID 37307) | SID104186413 | 4 | – | inactive
TfIIEbeta (GeneID 38527) | SID104188493 | 9 | – | inactive
CG8320 + ATPCL | SID104186939 | 3 | – | inactive
CG32299 + CG32298 | SID104187772 | 4 | – | inactive
CG32299 + CG32298 | SID104201846 | 7 | – | inactive
CG32299 + CG32298 | SID104204371 | 4 | – | inactive
CG11345 (GeneID 38548) | SID104187968 | 7 | – | inactive
CG11345 (GeneID 38548) | SID104207053 | 13 | – | inactive
AstC-R1 (GeneID 40020) | SID104190591 | 2 | – | inactive
AstC-R1 (GeneID 40020) | SID104208192 | – | – | inactive
CG13085 (GeneID 35219) | SID104181981 | 3 | – | inactive
CG13085 (GeneID 35219) | SID104206643 | 6 | – | inactive
msi (GeneID 43087) | SID104196795 | 6 | – | inactive
CG42322 (GeneID 42455) | SID104194904 | 7 | – | inactive
CG42322 (GeneID 42455) | SID104194905 | 6 | – | inactive
CG42322 (GeneID 42455) | SID104203522 | 10 | – | inactive
CG17264 (GeneID 33511) | SID104180292 | 9 | – | inactive
CG17264 (GeneID 33511) | SID104207996 | 3 | – | inactive
Etl1 (GeneID 34311) | SID104182703 | 2 | – | inactive
CG14071 (GeneID 34507) | SID104182166 | 6 | – | inactive
ppk19 (GeneID 43489) | SID104195113 | 16 | – | inactive
Ugt307A1 (GeneID 33993) | SID104181930 | 5 | – | inactive
mRpL55 (GeneID 42290) | SID104194556 | 8 | – | inactive
stas (GeneID 32737) | SID104199896 | 9 | – | inactive
Clbn (GeneID 43018) | SID104194196 | 8 | – | inactive
SIDL (GeneID 41833) | SID104195869 | 6 | – | inactive
CG15056 (GeneID 32824) | SID104199422 | 11 | – | inactive
gcm2 (GeneID 34280) | SID104183330 | 5 | 2 | inactive
gcm2 (GeneID 34280) | SID104208367 | 7 | – | inactive
ord (GeneID 37687) | SID104184498 | 4 | – | inactive
CG4842 (GeneID 39817) | SID104190245 | 9 | – | inactive
spri (GeneID 31987) | SID104197776 | 4 | – | inactive
spri (GeneID 31987) | SID104197777 | 8 | – | inactive
spri (GeneID 31987) | SID104197778 | 10 | – | inactive
spri (GeneID 31987) | SID104197781 | 6 | – | inactive
spri (GeneID 31987) | SID104202284 | 6 | – | inactive
spri (GeneID 31987) | SID104207358 | 6 | – | inactive
Inx3 (GeneID 44266) | SID104194649 | 2 | – | inactive
Inx3 (GeneID 44266) | SID104203003 | 11 | – | inactive
CG7366 (GeneID 38918) | SID104190617 | 10 | – | inactive
CG7366 (GeneID 38918) | SID104208532 | 13 | – | inactive
js (GeneID 41986) | SID104194796 | 6 | – | inactive
CG16898 (GeneID 37276) | SID104186427 | 5 | – | inactive
CG16898 (GeneID 37276) | SID104203381 | 4 | – | inactive
CG15625 (GeneID 33694) | SID104180252 | 4 | – | inactive
CG15625 (GeneID 33694) | SID104207775 | 1 | – | inactive
140up (GeneID 41720) | SID104192426 | 5 | – | inactive
140up (GeneID 41720) | SID104207255 | 3 | – | inactive
CG17047 (GeneID 36478) | SID104186440 | 3 | – | inactive
CG5623 (GeneID 41904) | SID104195640 | 6 | – | inactive
hth (GeneID 41273) | SID104196759 | 7 | – | inactive
hth (GeneID 41273) | SID104203375 | 3 | – | inactive
Atxn7 (GeneID 33423) | SID104202495 | 8 | – | inactive
ZnT41F (GeneID 35513) | SID104184642 | 7 | – | inactive
Rchy1 (GeneID 33901) | SID104202475 | 13 | – | inactive
Rchy1 (GeneID 33901) | SID104205319 | 5 | – | inactive
l(2)k09022 (GeneID 33960) | SID104181900 | 10 | – | inactive
CG14893 (GeneID 42023) | SID104194807 | 5 | – | inactive
RPA3 (GeneID 32113) | SID104199450 | 8 | – | inactive
tld (GeneID 42945) | SID104196876 | 8 | – | inactive
Seipin (GeneID 31245) | SID104198446 | 8 | – | inactive
CG32486 (GeneID 38367) | SID104188205 | 8 | – | inactive
CG32486 (GeneID 38367) | SID104188280 | 2 | – | inactive
CG33272 (GeneID 2768958) | SID104188908 | 15 | – | inactive
Nse4 (GeneID 34434) | SID104182031 | 8 | – | inactive
Nse4 (GeneID 34434) | SID104206881 | 6 | – | inactive
l(3)psg2 (GeneID 38630) | SID104190276 | 1 | – | inactive
l(3)psg2 (GeneID 38630) | SID104203020 | 4 | – | inactive
Ebp (GeneID 38009) | SID104183840 | 6 | – | inactive
Ebp (GeneID 38009) | SID104205886 | 7 | – | inactive
CG34458 (GeneID 5740868) | SID104186717 | 1 | – | inactive
CG9970 (GeneID 38351) | SID104188436 | 8 | – | inactive
ImpE1 (GeneID 45879) | SID104190987 | 3 | – | inactive
ImpE1 (GeneID 45879) | SID104190988 | 5 | – | inactive
ImpE1 (GeneID 45879) | SID104203282 | 8 | – | inactive
Gas8 (GeneID 31321) | SID104202243 | 8 | – | inactive
Gas8 (GeneID 31321) | SID104207797 | 2 | – | inactive
cv-d (GeneID 41921) | SID104196314 | 8 | – | inactive
cv-d (GeneID 41921) | SID104196316 | 30 | – | inactive
cv-d (GeneID 41921) | SID104196318 | 6 | – | inactive
GluRS-m (GeneID 39828) | SID104190223 | 5 | – | inactive
GluRS-m (GeneID 39828) | SID104205497 | 9 | – | inactive
CG11437 (GeneID 40470) | SID104191451 | 4 | – | inactive
CG31516 (GeneID 318776) | SID104191786 | 5 | – | inactive
a6 (GeneID 31127) | SID104198525 | 6 | – | inactive
CG9154 (GeneID 33858) | SID104182942 | 5 | – | inactive
RpL22-like (GeneID 37684) | SID104184374 | 10 | – | inactive
CG7829 (GeneID 43522) | SID104196114 | 3 | – | inactive
CG7829 (GeneID 43522) | SID104207159 | 7 | – | inactive
TyrR (GeneID 42136) | SID104196034 | 14 | – | inactive
CG13216 (GeneID 36181) | SID104186130 | 2 | – | inactive
CG12024 (GeneID 38243) | SID104188021 | 2 | – | inactive
CG12024 (GeneID 38243) | SID104205935 | 3 | – | inactive
RpL21 (GeneID 35453) | SID104183496 | 4 | – | inactive
MESR3 (GeneID 35116) | SID104182255 | 3 | – | inactive
CG16758 (GeneID 38315) | SID104187776 | 26 | – | inactive
CG16758 (GeneID 38315) | SID104188284 | 3 | – | inactive
CG16758 (GeneID 38315) | SID104207019 | 6 | – | inactive
Yod1 (GeneID 38603) | SID104190225 | 5 | – | inactive
Yod1 (GeneID 38603) | SID104205666 | 1 | – | inactive
TH1 (GeneID 32607) | SID104200081 | 6 | – | inactive
shrb (GeneID 35933) | SID104186853 | 8 | – | inactive
Mtch (GeneID 38026) | SID104188471 | 2 | – | inactive
fd3F + CG42499 (retired record) | SID104197952 | 11 | – | inactive
fd3F + CG42499 (retired record) | SID104197953 | 8 | – | inactive
fd3F + CG42499 (retired record) | SID104207098 | 7 | – | inactive
